Assay results reported in patent publication US9693993B1, “Method for treatment of menopausal symptoms” (priority 2013, dated 2017).
Some entries share one result that the patent states for a list of compounds.

Test system: vasomotor symptoms of menopause (hot flashes)
Assay: clinical case study, vasomotor symptoms of menopause (hot flashes)
Format: in vivo, human
Conditions: person, titrated to recommended dose, at least two week trial, each medication independently
Procedure: This was done to test the hypothesis of relieving vasomotor symptoms of hot flashes through influencing a dopaminergically regulated pathway within the central nervous system.
The other medical alternatives reported to have success in reducing hot flash frequency and severity by as much as 50% were evaluated by titrating to their recommended doses, and maintaining those doses for at least a two week trial. These included gabapentin at a dose of up to 1800 mg per day, venflaxamine at a dose of up to 300 mg per day and clonidine at a dose up to 0.4 mg per day, each medication evaluated independently of the others.
Safety monitoring included making certain there were no issues with nausea, liver function, low blood pressure or unusual dreams as […] treatment was continued.

SMILES	reduction of hot flashes [%]
NCC1(CC(=O)O)CCCCC1 [gabapentin]	≤ 25
COc1ccc(C(CN(C)C)C2(O)CCCCC2)cc1 (centres unmarked) [venflaxamine, venlafaxine]	≤ 25
